# Measured values as given in the supplement of paper PMC4604168 (melanoma cell lines).
# Some of the results follow. Single values are uncertain, as repeats are few or missing.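 The apoptosis fraction was the count of cleaved-PARP antibody-stained nuclei relative to all DNA-stained nuclei, imaged in 1,536-well plates. Screening doses were set so most cells survived, and baseline and induced cleaved-PARP levels vary greatly across cell lines.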
# Tested on: UACC62
# Test: cleaved PARP positive nuclei fraction relative to DMSO control; melanoma cells; higher = more apoptosis
# Settings: library dose: low library concentration; 72 h
row,SMILES,cleaved PARP positive nuclei fraction [%]
1,"O=C(Nc1cc(C(F)(F)F)cc(C(F)(F)F)c1)c1cc(Cl)ccc1O + Cn1cnc2c(F)c(Nc3ccc(Br)cc3Cl)c(C(=O)NOCCO)cc21 [selumetinib] (first compound 0.016 µM, partner dose 0.015 µM)",129
2,"Cc1ccc(Nc2nccc(N(C)c3ccc4c(C)n(C)nc4c3)n2)cc1S(N)(=O)=O [Pazopanib] + CC(=O)c1c(C)c2cnc(Nc3ccc(N4CCNCC4)cn3)nc2n(C2CCCC2)c1=O [palbociclib] (first compound 0.4 µM, partner dose 0.04 µM)",116
3,"CC[C@]1(O)C[C@H]2CN(CCc3c([nH]c4ccccc34)[C@@](C(=O)OC)(c3cc4c(cc3OC)N(C=O)[C@H]3[C@@](O)(C(=O)OC)[C@H](OC(C)=O)[C@]5(CC)C=CCN6CC[C@]43[C@@H]65)C2)C1 [vincristine] + C#Cc1cccc(Nc2ncnc3cc(OCCOC)c(OCCOC)cc23)c1 [erlotinib] (first compound 0.0001 µM, partner dose 0.8 µM)",311
4,"N#CC[C@H](C1CCCC1)n1cc(-c2ncnc3[nH]ccc23)cn1 [ruxolitinib] + O=C(O)[C@@H]1[O][Sb](=[O])([O][Sb]2(=[O])[O][C@H]([C@H](O)CO)[C@H](O)[C@H](C(=O)O)[O]2)[O][C@H]([C@H](O)CO)[C@@H]1O [stibogluconate] (first compound 1 µM, partner dose 2 µM)",83.9
5,"Cc1cn(-c2cc(NC(=O)c3ccc(C)c(Nc4nccc(-c5cccnc5)n4)c3)cc(C(F)(F)F)c2)cn1 [nilotinib] + CC(=O)O[C@@]12CO[C@@H]1C[C@H](O)[C@@]1(C)C(=O)[C@H](O)C3=C(C)[C@@H](OC(=O)[C@H](O)[C@@H](NC(=O)OC(C)(C)C)c4ccccc4)C[C@@](O)([C@@H](OC(=O)c4ccccc4)[C@H]21)C3(C)C [Docetaxel] (first compound 0.2 µM, partner dose 0.0001 µM)",169
